According to the supplement of paper PMC12067093, “Discovery and optimisation of a covalent ligand for TRIM25 and its application to targeted protein ubiquitination” (Chemical Science, 2025):
This is one part of the list.

Amino acid sequences for entries named in this document (tags omitted). A change or cut given only in a name is not applied to a line headed by its entry.
UniProt B0I1T2: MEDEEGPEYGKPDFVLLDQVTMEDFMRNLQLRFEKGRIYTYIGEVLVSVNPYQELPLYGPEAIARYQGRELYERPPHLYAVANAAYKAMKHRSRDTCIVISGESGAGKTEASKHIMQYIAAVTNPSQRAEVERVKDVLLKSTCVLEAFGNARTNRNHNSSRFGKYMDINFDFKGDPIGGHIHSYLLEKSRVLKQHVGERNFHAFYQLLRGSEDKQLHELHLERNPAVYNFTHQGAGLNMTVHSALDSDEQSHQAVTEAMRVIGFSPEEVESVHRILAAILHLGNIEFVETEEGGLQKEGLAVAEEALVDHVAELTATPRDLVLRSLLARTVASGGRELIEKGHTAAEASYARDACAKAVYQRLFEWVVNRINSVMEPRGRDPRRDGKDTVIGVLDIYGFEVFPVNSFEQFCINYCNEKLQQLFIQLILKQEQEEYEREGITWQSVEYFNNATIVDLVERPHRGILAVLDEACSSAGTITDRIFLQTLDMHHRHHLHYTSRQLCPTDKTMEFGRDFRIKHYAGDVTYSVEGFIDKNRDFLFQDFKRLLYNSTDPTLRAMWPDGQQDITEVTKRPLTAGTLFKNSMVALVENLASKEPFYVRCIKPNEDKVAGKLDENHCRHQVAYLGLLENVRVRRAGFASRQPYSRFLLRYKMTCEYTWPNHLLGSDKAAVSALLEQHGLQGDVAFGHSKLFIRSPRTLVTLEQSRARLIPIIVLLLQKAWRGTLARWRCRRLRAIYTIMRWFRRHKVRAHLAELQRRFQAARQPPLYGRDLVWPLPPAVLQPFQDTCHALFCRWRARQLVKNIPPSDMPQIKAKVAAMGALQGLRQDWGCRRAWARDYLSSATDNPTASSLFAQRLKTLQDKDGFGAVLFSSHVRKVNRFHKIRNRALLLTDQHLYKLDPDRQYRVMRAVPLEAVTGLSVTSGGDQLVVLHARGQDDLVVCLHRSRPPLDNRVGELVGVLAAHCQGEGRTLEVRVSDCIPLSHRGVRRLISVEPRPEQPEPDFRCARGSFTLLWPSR
UniProt Q92614: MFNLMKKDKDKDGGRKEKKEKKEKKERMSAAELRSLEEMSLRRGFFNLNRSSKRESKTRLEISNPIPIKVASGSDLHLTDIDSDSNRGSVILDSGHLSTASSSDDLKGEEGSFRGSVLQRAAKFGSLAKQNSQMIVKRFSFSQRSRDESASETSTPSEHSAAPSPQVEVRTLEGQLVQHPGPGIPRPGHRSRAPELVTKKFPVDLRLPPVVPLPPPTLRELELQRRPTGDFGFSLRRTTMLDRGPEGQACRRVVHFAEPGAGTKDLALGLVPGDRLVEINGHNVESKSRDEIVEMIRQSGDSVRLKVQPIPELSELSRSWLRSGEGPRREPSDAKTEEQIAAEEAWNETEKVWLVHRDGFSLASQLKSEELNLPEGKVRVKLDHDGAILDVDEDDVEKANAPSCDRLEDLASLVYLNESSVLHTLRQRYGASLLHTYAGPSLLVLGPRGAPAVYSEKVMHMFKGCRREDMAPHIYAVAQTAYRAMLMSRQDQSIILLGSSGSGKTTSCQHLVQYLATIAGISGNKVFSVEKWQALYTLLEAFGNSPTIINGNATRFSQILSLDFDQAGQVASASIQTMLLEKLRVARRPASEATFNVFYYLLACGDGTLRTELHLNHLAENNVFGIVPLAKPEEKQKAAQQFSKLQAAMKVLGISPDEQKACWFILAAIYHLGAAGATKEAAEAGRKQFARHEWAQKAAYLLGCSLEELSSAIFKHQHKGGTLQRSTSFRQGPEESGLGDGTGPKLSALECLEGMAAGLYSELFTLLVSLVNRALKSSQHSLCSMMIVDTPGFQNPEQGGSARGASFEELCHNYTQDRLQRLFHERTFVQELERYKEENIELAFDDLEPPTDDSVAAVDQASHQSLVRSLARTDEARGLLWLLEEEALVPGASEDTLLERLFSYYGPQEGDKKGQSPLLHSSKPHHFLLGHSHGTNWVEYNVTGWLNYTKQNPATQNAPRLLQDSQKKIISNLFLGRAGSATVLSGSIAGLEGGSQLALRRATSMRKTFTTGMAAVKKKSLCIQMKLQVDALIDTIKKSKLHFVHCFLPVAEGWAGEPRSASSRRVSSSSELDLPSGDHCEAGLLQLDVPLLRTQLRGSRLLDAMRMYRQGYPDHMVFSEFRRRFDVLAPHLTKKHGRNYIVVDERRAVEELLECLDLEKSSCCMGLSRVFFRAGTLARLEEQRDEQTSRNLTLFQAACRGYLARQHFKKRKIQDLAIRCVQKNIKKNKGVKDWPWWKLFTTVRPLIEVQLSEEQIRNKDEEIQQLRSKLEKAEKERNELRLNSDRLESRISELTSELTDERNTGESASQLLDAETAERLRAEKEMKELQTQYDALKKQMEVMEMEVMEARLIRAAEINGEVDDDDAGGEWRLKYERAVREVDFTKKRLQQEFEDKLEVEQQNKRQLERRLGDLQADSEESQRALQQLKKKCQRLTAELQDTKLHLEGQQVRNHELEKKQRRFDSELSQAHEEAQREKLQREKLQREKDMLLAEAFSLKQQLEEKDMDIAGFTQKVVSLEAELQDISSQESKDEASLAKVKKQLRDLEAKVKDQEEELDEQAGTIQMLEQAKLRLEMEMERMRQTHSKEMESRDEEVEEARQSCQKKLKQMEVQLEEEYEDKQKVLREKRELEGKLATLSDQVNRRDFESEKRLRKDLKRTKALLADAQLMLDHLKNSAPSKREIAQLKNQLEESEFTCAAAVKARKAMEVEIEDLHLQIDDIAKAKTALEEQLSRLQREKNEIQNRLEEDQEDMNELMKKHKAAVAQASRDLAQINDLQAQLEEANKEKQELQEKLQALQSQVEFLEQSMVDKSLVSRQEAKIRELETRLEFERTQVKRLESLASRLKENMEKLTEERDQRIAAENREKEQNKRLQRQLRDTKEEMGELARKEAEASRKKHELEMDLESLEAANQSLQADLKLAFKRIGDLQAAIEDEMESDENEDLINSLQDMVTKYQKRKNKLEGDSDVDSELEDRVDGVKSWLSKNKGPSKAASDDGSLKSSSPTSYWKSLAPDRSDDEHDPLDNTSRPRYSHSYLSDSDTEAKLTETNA
UniProt P54920: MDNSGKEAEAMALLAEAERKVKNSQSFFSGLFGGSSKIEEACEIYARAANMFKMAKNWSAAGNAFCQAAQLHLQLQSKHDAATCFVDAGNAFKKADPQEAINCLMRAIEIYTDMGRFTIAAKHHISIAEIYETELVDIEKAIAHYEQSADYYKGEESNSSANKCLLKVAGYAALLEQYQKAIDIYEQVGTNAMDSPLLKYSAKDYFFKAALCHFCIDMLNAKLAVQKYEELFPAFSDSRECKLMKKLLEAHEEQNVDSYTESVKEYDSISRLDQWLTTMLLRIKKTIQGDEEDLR
UniProt Q9NR45: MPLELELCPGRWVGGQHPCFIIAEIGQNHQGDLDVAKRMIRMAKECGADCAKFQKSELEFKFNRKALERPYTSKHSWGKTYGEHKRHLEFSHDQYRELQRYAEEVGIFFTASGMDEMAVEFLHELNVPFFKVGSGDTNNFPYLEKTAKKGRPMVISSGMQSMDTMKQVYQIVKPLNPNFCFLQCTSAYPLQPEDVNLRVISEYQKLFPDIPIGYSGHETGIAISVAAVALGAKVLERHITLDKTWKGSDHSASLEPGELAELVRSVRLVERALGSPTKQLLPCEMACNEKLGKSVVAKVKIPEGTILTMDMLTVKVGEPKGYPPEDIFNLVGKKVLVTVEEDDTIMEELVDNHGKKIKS
UniProt Q86XI2: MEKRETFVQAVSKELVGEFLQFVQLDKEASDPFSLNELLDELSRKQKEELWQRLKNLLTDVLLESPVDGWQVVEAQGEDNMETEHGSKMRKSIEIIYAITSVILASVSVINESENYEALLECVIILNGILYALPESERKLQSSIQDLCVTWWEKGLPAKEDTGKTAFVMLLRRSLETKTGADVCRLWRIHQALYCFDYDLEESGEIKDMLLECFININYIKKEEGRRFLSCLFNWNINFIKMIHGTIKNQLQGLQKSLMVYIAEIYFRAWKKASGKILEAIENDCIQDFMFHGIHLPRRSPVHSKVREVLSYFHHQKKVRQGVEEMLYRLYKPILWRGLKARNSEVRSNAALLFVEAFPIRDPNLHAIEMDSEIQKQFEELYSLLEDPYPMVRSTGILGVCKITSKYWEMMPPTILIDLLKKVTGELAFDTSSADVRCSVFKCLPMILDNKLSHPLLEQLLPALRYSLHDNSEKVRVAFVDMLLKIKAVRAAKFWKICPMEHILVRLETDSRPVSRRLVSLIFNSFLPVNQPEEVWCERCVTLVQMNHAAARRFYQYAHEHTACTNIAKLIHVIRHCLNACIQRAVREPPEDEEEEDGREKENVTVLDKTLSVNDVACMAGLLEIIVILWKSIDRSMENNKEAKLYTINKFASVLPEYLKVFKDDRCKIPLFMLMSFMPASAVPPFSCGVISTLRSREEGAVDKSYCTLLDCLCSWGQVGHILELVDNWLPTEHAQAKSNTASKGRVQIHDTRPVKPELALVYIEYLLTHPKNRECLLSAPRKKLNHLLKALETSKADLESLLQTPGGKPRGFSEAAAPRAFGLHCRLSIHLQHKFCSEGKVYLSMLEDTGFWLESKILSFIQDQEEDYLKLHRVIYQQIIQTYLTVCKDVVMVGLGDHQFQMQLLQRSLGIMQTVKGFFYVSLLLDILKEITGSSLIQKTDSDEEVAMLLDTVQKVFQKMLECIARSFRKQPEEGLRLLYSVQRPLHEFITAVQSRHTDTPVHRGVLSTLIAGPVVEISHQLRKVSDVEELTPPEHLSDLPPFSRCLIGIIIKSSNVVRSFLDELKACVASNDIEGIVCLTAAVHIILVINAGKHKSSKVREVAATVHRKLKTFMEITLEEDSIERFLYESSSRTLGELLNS
UniProt P49321, whole entry, looked up: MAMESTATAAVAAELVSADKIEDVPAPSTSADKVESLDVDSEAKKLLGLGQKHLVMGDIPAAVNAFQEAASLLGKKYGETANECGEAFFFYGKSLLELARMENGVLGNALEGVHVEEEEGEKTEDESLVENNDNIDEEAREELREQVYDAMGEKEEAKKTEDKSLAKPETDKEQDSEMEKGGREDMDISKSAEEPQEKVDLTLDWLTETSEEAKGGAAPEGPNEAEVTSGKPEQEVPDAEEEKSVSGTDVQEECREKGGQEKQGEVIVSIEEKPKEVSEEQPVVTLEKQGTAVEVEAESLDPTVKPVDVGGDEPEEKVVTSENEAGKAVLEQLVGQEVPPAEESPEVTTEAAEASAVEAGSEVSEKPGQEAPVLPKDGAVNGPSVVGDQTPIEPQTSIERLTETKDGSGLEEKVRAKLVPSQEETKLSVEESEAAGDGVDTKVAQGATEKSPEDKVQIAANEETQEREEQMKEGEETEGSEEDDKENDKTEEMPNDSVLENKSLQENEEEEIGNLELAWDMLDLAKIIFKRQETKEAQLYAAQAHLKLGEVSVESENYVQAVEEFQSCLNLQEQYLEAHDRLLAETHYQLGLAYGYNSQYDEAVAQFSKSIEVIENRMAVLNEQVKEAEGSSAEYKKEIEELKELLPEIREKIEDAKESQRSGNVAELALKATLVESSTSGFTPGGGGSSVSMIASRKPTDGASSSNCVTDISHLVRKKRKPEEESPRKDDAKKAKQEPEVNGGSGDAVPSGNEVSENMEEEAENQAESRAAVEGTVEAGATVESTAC
UniProt P17050: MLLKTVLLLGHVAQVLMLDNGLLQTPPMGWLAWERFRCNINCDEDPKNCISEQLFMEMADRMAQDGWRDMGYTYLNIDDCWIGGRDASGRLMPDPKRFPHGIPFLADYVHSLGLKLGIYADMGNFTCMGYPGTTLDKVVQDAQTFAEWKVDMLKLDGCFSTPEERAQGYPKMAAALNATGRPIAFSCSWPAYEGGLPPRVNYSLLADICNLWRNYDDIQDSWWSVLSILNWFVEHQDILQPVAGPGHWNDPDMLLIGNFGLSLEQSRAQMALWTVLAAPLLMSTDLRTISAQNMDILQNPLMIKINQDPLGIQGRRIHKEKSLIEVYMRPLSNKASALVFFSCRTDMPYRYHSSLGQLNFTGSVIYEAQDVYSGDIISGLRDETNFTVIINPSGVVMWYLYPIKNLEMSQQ
UniProt Q15742: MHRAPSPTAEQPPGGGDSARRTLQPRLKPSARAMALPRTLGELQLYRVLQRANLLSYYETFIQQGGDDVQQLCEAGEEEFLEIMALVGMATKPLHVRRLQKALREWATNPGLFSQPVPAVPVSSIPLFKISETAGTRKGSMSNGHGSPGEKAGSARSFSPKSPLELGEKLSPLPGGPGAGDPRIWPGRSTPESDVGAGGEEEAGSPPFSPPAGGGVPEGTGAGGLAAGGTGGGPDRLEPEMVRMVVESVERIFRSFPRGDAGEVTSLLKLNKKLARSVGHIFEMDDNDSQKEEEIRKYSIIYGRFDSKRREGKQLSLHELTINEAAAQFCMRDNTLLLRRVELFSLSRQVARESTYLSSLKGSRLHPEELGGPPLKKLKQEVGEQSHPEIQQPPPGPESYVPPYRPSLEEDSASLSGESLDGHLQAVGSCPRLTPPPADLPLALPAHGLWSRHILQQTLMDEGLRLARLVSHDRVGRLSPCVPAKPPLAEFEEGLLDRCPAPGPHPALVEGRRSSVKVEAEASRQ

Compound: CC1Cc2ccccc2N1C(=O)C1CCCN(C1)C(=O)CCl (mixture of isomers) [TRIM25 ligand 11 (diastereomer mixture)]
Test: probe-labelled cysteine peptide fold change vs DMSO (competition) (log2 fold change); higher = less target engagement (more negative = stronger competition)
Conditions: THP-1, incubation time: 4 h
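Note: competitive chemoproteomic profiling in live THP-1 cells with an iodoacetamide desthiobiotin (IA-DTB) probe, comparing probe-labelled peptide intensities in compound-treated cells against DMSO-treated controls.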

Target | probe-labelled cysteine peptide fold change (10 µM) | probe-labelled cysteine peptide fold change (50 µM)
MYO1G_B0I1T2_942_GQDDLVVCLHR (UniProt B0I1T2) | -0.214 | 0.0648
MYO18A_Q92614_1046_LHFVHCFLPVAEGWAGEPR (UniProt Q92614) | 0.231 | 0.422
MYO18A_Q92614_404_ANAPSCDR (UniProt Q92614) | 0.17 | -0.00658
NAPA_P54920_103_ADPQEAINCLMR (UniProt P54920) | 0.0282 | 0.0252
MYO9B_Q13459_1876_ITTCVEMLIK (UniProt Q13459) | -0.198 | 0.00162
NANS_Q9NR45_8_PLELELCPGR (UniProt Q9NR45) | -0.084 | 0.0856
NCALD_P61601_38_DCPSGHLSMEEFKK (UniProt P61601) | 0.162 | -0.121
MYO9B_Q13459_152_QQADFDDLCNLPELTEGNLLK (UniProt Q13459) | -0.135 | -0.0276
NCAPG2_Q86XI2_776_NRECLLSAPR (UniProt Q86XI2) | -0.0525 | -0.00285
NAP1L4_Q99733_77_CAHIEAK (UniProt Q99733) | -0.0897 | -0.0549
NACC2_Q96BF6_441_ESEMNVIAADMCTNAR (UniProt Q96BF6) | 0.138 | -0.0939
NANS_Q9NR45_19_WVGGQHPCFIIAEIGQNHQGDLDVAK (UniProt Q9NR45) | 0.0689 | 0.0782
NCAPD3_P42695_588_HCDVSGMKEDLWILQDQCRDPAVSVR (UniProt P42695) | -0.0841 | -0.0747
NASP_P49321_84_YGETANECGEAFFFYGK (UniProt P49321) | 0.00978 | 0.236
NAA50_Q9GZZ1_79_LYIMTLGCLAPYR (UniProt Q9GZZ1) | -0.0571 | 0.132
NAGA_P17050_343_ASALVFFSCR (UniProt P17050) | -0.131 | -0.000148
NAB2_Q15742_481_LSPCVPAKPPLAEFEEGLLDR (UniProt Q15742) | -0.264 | -0.523
MYOF_Q9NZM1_1660_FGSHCGIPEEYCVSGVNTWR (UniProt Q9NZM1) | 0.0867 | 0.145
NCAPG2_Q86XI2_826_AFGLHCR (UniProt Q86XI2) | 0.018 | 0.226
NASP_P49321_254_SVSGTDVQEECR (UniProt P49321) | 0.024 | 0.0582
MYL9_P24844_109_NAFACFDEEASGFIHEDHLR (UniProt P24844) | -1.03e-05 | -0.0812
MYO9B_Q13459_34_REQAAYHLHIYPQLSTTESQASCR (UniProt Q13459) | -0.0459 | 0.124

Reformatted with tabs: part of the list above.
Target	probe-labelled cysteine peptide fold change (10 µM)	probe-labelled cysteine peptide fold change (50 µM)
NAPA_P54920_103_ADPQEAINCLMR (UniProt P54920)	0.0282	0.0252
MYO9B_Q13459_1876_ITTCVEMLIK (UniProt Q13459)	-0.198	0.00162
